These results are taken from paper doi:10.1101/488536.

Assay [1] addresses T1, ICR1 W338Q, two-hybrid fusion (Arabidopsis) (UniProt Q8LE98).
T1 sequence: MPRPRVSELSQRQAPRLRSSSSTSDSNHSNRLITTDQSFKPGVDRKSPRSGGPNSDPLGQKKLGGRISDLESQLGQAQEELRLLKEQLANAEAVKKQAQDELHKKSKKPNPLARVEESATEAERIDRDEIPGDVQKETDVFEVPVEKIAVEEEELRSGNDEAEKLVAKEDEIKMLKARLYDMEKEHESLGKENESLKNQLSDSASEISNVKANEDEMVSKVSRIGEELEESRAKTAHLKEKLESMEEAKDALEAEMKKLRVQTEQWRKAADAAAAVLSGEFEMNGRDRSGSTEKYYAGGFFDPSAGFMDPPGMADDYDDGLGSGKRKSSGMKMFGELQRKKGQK
Kind of assay: two-hybrid.

The target in assay [2] is T2, ICR1W266A, two-hybrid fusion (Arabidopsis) (UniProt Q8LE98).
T2 sequence: T1 sequence with W266A, Q338W
Kind of assay: two-hybrid.

In assay [3] the target is T3, ICR1W338A, two-hybrid fusion (Arabidopsis) (UniProt Q8LE98).
T3 sequence: T1 sequence with Q338A
Nature of the assay: two-hybrid.

The target of assay [4] is T4, full-length ICR1, pDEST22/pDEST32 two-hybrid fusion (Arabidopsis) (UniProt Q8LE98).
T4 sequence: T1 sequence with Q338W
Nature of the assay: two-hybrid.

Assay [5] concerns the target T5, icr1-151-344 (ICR1 C-terminal fragment, residues 151 to 344), two-hybrid fusion (Arabidopsis) (UniProt Q8LE98).
T5 sequence: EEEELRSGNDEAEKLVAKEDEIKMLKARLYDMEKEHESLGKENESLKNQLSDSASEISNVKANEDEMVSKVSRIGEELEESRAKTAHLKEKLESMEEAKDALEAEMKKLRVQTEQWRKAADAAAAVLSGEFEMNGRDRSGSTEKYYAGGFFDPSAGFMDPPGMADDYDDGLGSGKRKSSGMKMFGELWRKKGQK
Nature of the assay: two-hybrid.

Assay [6] deals with T6, icr1-301-344 (the 44 C-terminal residues of ICR1), two-hybrid fusion (Arabidopsis) (UniProt Q8LE98).
T6 sequence: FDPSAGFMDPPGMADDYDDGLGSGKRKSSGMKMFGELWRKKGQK
Nature of the assay: two-hybrid.

For assay [7], the target named is T7, icr1W266Q, two-hybrid fusion (Arabidopsis) (UniProt Q8LE98).
T7 sequence: T1 sequence with W266Q, Q338W
Kind of assay: two-hybrid.

Assay [8] deals with T8, ICR1 (Interactor of Constitutively active ROP 1), pGBT-ICR1 two-hybrid fusion (Arabidopsis) (UniProt Q8LE98).
T8 sequence: T1 sequence with Q338W
Kind of assay: two-hybrid.

The target in assay [9] is T9, ICR2, pGBT-ICR2 two-hybrid fusion (Arabidopsis) (UniProt Q9ZQC5).
T9 sequence: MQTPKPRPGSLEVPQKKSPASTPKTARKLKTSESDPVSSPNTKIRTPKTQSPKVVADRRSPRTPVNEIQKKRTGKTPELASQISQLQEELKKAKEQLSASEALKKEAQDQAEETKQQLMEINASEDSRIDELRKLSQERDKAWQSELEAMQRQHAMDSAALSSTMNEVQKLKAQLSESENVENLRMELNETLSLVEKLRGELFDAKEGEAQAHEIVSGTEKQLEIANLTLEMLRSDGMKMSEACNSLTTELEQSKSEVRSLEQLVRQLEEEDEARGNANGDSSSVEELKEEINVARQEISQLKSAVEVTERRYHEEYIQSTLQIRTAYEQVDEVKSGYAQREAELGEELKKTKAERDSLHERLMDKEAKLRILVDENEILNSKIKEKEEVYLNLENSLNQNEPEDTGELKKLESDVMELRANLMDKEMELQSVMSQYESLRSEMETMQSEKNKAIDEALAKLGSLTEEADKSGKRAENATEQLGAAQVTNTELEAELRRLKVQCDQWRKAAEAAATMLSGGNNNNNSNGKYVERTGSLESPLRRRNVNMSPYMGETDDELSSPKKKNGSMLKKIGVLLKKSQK
Nature of the assay: two-hybrid.

Assay [10] addresses T10, ICR4, pGBT-ICR4 two-hybrid fusion (Arabidopsis) (UniProt Q9M9F9).
T10 sequence: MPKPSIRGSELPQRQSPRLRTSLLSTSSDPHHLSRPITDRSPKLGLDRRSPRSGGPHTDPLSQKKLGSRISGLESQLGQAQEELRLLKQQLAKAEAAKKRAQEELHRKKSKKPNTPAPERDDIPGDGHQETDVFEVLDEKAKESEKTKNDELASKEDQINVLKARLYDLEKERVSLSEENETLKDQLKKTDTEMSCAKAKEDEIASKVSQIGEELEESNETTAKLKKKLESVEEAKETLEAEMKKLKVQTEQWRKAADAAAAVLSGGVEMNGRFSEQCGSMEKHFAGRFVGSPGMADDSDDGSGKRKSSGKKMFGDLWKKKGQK
Kind of assay: two-hybrid.

The target of assay [11] is T11, GST-ICR1 (Arabidopsis) (UniProt Q8LE98).
T11 sequence: T1 sequence with Q338W
Kind of assay: pull-down.

Numbering of substitutions follows the chain as printed. Results are given in words; binding and its absence hold for the method and conditions named. Some results given as binding are weak or reduced against the parent protein; the word gives no strength. Sequences can lack the tags named with a protein.

B1: CMI1, pDEST22/pDEST32 two-hybrid fusion (protein, UniProt O81831 1-130)
chain: MASPKSPTRPTQQNPQPNFHDFLPTMAGNLGGEGLIGELCNGFELLMDREKGVITFESLRRNAAAVLGLGDLTDEDVRCMIKEGDFDCDGALNQMEFCVLMFRLSPDLMEASRCLVTEVIEEEFGFTRRH
In the case of B1, the binding result is reported as “no binding” in [1]; “binds” in assay [2]; “no binding” in assay [3]; “binds” in assay [4]; “binds” in [5]; “binds” in [6]. Moreover, the binding entry in assay [7] is “binds”.

B2: CMI1 (Ca^2+ sensor Modulator of ICR1), pGAD-CMI1 two-hybrid fusion (protein, UniProt O81831 1-130)
chain: B1 chain
Consider B2, for which the binding result is “binds” in assay [8], “no binding” in assay [9] and “no binding” in assay [10].

B3: His6-CMI1 (protein, UniProt O81831 1-130)
chain: B1 chain
Consider B3, for which the binding result in [11] is “no binding (condition: with 10 mM EGTA)”.
